These are yes or no findings as the source states them, for the method shown. Some binding calls cover weakened binding; strength is not graded here. Sequences can lack the tags named with a protein.

Amino acid sequences for entries named in this document (tags omitted). A change or cut given only in a name is not applied to a line headed by its entry.
UniProt P02453: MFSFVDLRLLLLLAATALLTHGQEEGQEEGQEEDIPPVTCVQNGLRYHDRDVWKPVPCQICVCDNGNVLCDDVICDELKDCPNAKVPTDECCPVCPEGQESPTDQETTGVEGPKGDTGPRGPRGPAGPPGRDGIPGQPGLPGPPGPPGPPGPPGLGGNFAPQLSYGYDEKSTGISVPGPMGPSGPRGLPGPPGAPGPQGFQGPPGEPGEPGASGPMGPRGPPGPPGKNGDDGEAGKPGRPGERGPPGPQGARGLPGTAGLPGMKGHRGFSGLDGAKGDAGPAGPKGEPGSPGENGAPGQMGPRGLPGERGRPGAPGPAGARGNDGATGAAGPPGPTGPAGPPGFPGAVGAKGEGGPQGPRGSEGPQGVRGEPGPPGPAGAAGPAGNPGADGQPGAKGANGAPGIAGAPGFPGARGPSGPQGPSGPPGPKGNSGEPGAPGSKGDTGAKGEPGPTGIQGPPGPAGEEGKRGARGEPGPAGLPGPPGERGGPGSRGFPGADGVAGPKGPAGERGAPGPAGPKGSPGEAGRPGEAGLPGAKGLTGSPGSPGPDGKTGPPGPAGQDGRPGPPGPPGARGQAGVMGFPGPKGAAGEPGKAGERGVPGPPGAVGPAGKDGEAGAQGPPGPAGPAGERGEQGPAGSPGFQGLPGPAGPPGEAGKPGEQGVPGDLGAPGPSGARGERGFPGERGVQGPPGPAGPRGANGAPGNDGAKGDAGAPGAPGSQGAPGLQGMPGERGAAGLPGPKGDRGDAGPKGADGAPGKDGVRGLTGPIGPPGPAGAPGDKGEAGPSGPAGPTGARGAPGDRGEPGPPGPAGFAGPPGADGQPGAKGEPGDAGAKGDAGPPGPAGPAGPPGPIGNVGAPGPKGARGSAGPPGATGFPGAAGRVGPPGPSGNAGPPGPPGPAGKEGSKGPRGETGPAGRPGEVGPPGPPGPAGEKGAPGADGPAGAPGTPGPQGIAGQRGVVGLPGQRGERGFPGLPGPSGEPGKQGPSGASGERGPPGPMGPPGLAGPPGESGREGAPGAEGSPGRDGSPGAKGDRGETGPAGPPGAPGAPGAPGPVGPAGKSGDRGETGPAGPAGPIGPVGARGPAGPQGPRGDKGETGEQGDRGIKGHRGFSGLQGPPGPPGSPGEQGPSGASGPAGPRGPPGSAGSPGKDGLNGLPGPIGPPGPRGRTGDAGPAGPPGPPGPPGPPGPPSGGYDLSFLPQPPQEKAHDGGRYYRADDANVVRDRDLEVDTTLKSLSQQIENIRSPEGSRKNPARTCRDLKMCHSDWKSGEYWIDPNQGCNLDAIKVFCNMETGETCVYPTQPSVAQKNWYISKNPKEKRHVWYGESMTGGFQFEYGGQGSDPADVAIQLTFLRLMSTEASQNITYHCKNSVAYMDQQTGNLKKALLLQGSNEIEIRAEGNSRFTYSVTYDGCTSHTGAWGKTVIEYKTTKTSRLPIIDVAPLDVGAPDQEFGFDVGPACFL

In paper PMC11533527, “A yeast two-hybrid system to obtain triple-helical ligands from combinatorial random peptide libraries” (The Journal of Biological Chemistry, 2024) one finds binding data, which are given here for one molecule.

The target in the experiment is type I collagen (collagen I, Koken) (UniProt P02453). Nature of the experiment: ELISA; competitive ELISA: wells coated with 10 μg/ml collagen I; annealed peptides preincubated with 3 nM GST-PEDF for 10 min at room temperature in 20 mM HEPES-Na pH 7.4, 100 mM NaCl, 0.005% Tween 20; 90 min at 4 °C in the wells; HRP-anti-GST detection; both purified. (ELISA stands for enzyme-linked immunosorbent assay.)

B1: glutathione S-transferase (GST)-PEDF-fusion protein (protein, UniProt P97298 20-417)
chain: QNVPSSSEGSPVPDSTGEPVEEEDPFFKVPVNKLAAAVSNFGYDLYRLRSSASPTGNVLLSPLSVATALSALSLGAEHRTESVIHRALYYDLITNPDIHSTYKELLASVTAPEKNLKSASRIVFERKLRVKSSFVAPLEKSYGTRPRILTGNPRVDLQEINNWVQAQMKGKIARSTREMPSALSILLLGVAYFKGQWVTKFDSRKTTLQDFHLDEDRTVRVPMMSDPKAILRYGLDSDLNCKIAQLPLTGSMSIIFFLPLTVTQNLTMIEESLTSEFIHDIDRELKTIQAVLTVPKLKLSFEGELTKSLQDMKLQSLFESPDFSKITGKPVKLTQVEHRAAFEWNEEGAGSSPSPGLQPVRLTFPLDYHLNQPFLFVLRDTDTGALLFIGRILDPSST
As for B1, the binding result is listed as “binds”.
